Experimental data reported in PMC7719821.
No constants are given. Whether binding was seen depends on the method and setting. Some binding calls cover weakened binding; strength is not graded here.

By UniProt entry, the sequences of proteins in these tests, tags left out.
UniProt P27434: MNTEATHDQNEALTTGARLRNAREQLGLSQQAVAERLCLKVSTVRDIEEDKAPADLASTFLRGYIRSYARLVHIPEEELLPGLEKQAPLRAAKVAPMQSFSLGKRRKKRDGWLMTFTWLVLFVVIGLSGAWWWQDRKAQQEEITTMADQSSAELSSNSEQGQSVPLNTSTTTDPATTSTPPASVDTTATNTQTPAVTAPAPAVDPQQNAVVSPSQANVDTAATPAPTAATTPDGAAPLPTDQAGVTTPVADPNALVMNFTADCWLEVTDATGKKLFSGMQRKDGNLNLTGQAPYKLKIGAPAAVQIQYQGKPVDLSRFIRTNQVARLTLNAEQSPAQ
UniProt P0A9X4: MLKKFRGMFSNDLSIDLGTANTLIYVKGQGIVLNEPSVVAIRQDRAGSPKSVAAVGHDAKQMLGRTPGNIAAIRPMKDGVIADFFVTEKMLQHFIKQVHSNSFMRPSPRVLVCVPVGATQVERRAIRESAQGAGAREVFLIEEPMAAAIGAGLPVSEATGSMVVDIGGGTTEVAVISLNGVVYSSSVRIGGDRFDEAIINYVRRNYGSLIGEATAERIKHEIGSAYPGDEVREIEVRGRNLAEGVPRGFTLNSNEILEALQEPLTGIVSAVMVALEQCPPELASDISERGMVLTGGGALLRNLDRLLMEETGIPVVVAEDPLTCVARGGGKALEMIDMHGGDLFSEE

Biological target: RodZ (Escherichia coli) (UniProt P27434)
Experiment: two-hybrid; bacterial two-hybrid assay as in Shiomi and Margolin, 2007; in WT cells and in cells lacking anionic phospholipids (ΔaPLs)

binding: binds
Substance: MreB (from UniProt P0A9X4 1-347)
